In publication PMC6375223:
Results are given in words; binding and its absence hold for the method and conditions named. In cells and extracts the contact can be indirect. These calls come from enrichment with a bait or labelling near it, and not all partners need be listed.

Amino acid sequences for entries named in this document (tags omitted).
UniProt Q13309: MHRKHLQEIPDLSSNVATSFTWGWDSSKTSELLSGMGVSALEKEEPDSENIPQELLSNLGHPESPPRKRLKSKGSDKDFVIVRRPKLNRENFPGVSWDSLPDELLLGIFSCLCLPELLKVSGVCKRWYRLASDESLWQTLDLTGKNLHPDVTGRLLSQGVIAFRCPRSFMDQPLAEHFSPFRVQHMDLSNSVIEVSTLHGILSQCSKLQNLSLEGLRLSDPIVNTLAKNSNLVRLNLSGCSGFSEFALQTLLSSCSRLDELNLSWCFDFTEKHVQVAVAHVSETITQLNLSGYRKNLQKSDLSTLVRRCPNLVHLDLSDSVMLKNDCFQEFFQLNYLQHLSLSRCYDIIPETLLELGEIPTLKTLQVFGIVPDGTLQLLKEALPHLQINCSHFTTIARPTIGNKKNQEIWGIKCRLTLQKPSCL

Molecular target: Myc-SKP2 (S-phase kinase-associated protein 2) (UniProt Q13309)
Test: affinity purification with mass spectrometry; lysates of 293 T cells stably transfected with vector or Myc-SKP2, immunoprecipitated with Myc antibody, SDS-PAGE, bands excised from Coomassie staining

B1: Programmed cell death protein 4 (PDCD4), endogenous (protein, UniProt Q53EL6 1-469)
chain: MDVENEQILNVNPADPDNLSDSLFSGDEENAGTEEIKNEINGNWISASSINEARINAKAKRRLRKNSSRDSGRGDSVSDSGSDALRSGLTVPTSPKGRLLDRRSRSGKGRGLPKKGGAGGKGVWGTPGQVYDVEEVDVKDPNYDDDQENCVYETVVLPLDERAFEKTLTPIIQEYFEHGDTNEVAEMLRDLNLGEMKSGVPVLAVSLALEGKASHREMTSKLLSDLCGTVMSTTDVEKSFDKLLKDLPELALDTPRAPQLVGQFIARAVGDGILCNTYIDSYKGTVDCVQARAALDKATVLLSMSKGGKRKDSVWGSGGGQQSVNHLVKEIDMLLKEYLLSGDISEAEHCLKELEVPHFHHELVYEAIIMVLESTGESTFKMILDLLKSLWKSSTITVDQMKRGYERIYNEIPDINLDVPHSYSVLERFVEECFQAGIISKQLRDLCPSRGRKRFVSEGDGGRLKPESY
- binding: binds
